{"source": "PubChem BioAssay AID493014", "about": "(National Center for Advancing Translational Sciences (NCATS), 2011)", "note": "In all, about 340,000 compounds went through this assay and about 170 (0.05%) were called active. Inconclusive results, whose numbers are uncertain, are shown with a selection of clear calls. Calls come from the whole dose curve; as a rule, active = well fitted inhibition curve with a large enough effect in the signal ratio, with a control signal flat (not every such curve was filed as active); inconclusive = small, poorly fitted or top-dose-only effect, or effect the other way, or a change in a side signal; inactive = flat fitted curve, though single readings scatter; the % refers to the signal ratio. Where the call is inconclusive, the potency comes from a doubtful curve fit. Potency is the fitted concentration of half-maximal effect.", "data": [{"experiment": "qHTS Assay to Find Inhibitors of Chronic Active B-Cell Receptor Signaling;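 for activity change, negative = inhibition: plate controls were basal doxycycline-induced cells for no effect and cells given 10 µM MG132 for full effect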", "conditions": "ABC-DLBCL IkBa-CBG/CBR reporter, luminescence ratio (green luciferase fused to IkBa over red control in TMD8 lymphoma cells), 4 h; activity change, negative = inhibition: at 46.1 µM (top of the series)", "how_it_was_run": "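Doxycycline induced both beetle luciferases in TMD8 lymphoma cells; IKK-driven degradation limits the IkappaBalpha-fused green signal, while red luminescence normalises for cell number and nonspecific effects. Compounds tested up to 46 uM, 4 hrs.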", "values": [{"smiles": "CC1CCN(c2cc(N3CCOCC3)c([N+](=O)[O-])cc2F)CC1", "activity change, negative = inhibition": "inconclusive: 11.3%"}, {"smiles": "O=C(CCNC(=O)c1ccc([N+](=O)[O-])cc1)Nc1ccc(F)cc1F", "activity change, negative = inhibition": "inactive"}, {"smiles": "CC(C)(C)C(=O)CSc1nc2ccsc2c(=O)n1Cc1ccccc1F", "Potency": "inconclusive: 31.6 µM [rising, single point]"}, {"smiles": "COc1ccccc1C(=O)Nc1cc2c(cc1C(=O)O)OCCCO2", "Potency": "inconclusive: 35.5 µM [falling, single point]"}, {"smiles": "Cn1c2cc([N+](=O)[O-])sc2c2cnn(Cc3ccccc3F)c(=O)c21", "activity change, negative = inhibition": "inactive"}, {"smiles": "CCc1cccc(C)c1N1C(=O)CC(C)(C)CC1=O", "activity change, negative = inhibition": "inconclusive: -0.299%"}, {"smiles": "N=C1/C(=C\\c2ccc(OC(=O)c3ccc(F)cc3)cc2)C(=O)N=C2SC(N3CCOCC3)=NN12", "activity change, negative = inhibition": "inconclusive: -6.43%"}, {"smiles": "CCOC(=O)[C@H]1[C@H]2COc3ccc(Cl)cc3[C@@H]2N2C(=O)CN(C)C(=O)[C@@]12C", "activity change, negative = inhibition": "inconclusive: -3.89%"}, {"smiles": "O=S1(=O)CCN(Cc2ccccn2)CC1", "activity change, negative = inhibition": "inconclusive: 6.94%"}, {"smiles": "N#Cc1nc(COc2ccc(Cl)cc2Cl)oc1N1CCOCC1", "activity change, negative = inhibition": "inconclusive: 12.4%"}, {"smiles": "O=C(CSc1ccc(-c2ccccn2)nn1)N1CCCc2ccccc21", "activity change, negative = inhibition": "inconclusive: 0.145%"}, {"smiles": "O=C(O)CCCNc1cc(N2CCC3(CC2)OCCO3)c2noc3c2c1C(=O)c1ccccc1-3", "activity change, negative = inhibition": "inconclusive: 3.09%"}, {"smiles": "CCOC(=O)N1CCN(C(=O)c2ccc(S(=O)(=O)Nc3cccc(C(F)(F)F)c3)cc2)CC1", "activity change, negative = inhibition": "inconclusive: 0.459%"}, {"smiles": "COc1ccccc1CNc1nc(=S)[nH]c2cc(OC)c(OC)cc12", "activity change, negative = inhibition": "inactive"}, {"smiles": "O=C(O)c1ccccc1SCc1cn2cc(Br)ccc2n1", "activity change, negative = inhibition": "inconclusive: 4.73%"}, {"smiles": "CS(=O)(=O)c1ccc(C(=O)Nc2ccc(-c3nc4ccccc4[nH]3)cc2)cc1", "Potency": "inconclusive: 3.16 µM [rising, partial curve, poor fit]"}, {"smiles": "O=C(NCC(O)CN1CCOCC1)c1ccc([N+](=O)[O-])cc1", "note": "(configuration not stated)", "activity change, negative = inhibition": "inconclusive: 6.26%"}, {"smiles": "Cc1ccc(-c2cc(C(=O)N3CCN(c4ccccc4O)CC3)c3ccccc3n2)o1", "activity change, negative = inhibition": "inconclusive: 0.764%"}, {"smiles": "Cc1c(C(=O)NCc2cccnc2)oc2ccc(S(=O)(=O)N3CCC4(CC3)OCCO4)cc12", "activity change, negative = inhibition": "inconclusive: -12.8%"}, {"smiles": "Cc1ccc(NC(=O)c2ccc(Cl)c(N3C(=O)CCC3=O)c2)cc1", "activity change, negative = inhibition": "inconclusive: -13.7%"}, {"smiles": "Cc1ccc2c(c1)N(C(=O)CCC(=O)NCc1ccccc1)CC(C)O2", "note": "(configuration not stated)", "activity change, negative = inhibition": "inconclusive: 30.1%"}, {"smiles": "COc1ccc(-n2nc3c(c2NC(=O)Cc2cccc(C)c2)CS(=O)C3)cc1", "note": "(configuration not stated)", "activity change, negative = inhibition": "inconclusive: -14.3%"}]}]}
